No constants are given. Whether binding was seen depends on the method and setting. Binding seen in cells or lysates may run through a third protein. For part of these data: Binding calls can cover weak binding; strength is not graded here.
Assays:
Assay in all cases: pull-down; 3 μg purified GST fusion protein on glutathione beads, incubated with 1~2 mg lysate of transfected Ros 17/2.8 cells for 2 h at 4°C; lysis buffer 1% NP40, 0.5% sodium deoxycholate, 0.1% SDS in PBS; western blot; cells untreated or treated with 20 μM forskolin for 24 h (also with 5 μM H89), or lysates treated with forskolin in vitro; only the target purified
[1] = molecular target: GST-actinin 4 R14 (spectrin-repeat domains 1-4, aa 269-724) (UniProt O43707)
[2] = molecular target: GST-actinin 4 EF (EF-hand domains, aa 742-811) (UniProt O43707)
[3] = molecular target: GST-actinin 4 ABD (actin-binding domain, amino acids 1-237) (UniProt O43707)

Amino acid sequences for entries named in this document (tags omitted). A change or cut given only in a name is not applied to a line headed by its entry.
UniProt O43707: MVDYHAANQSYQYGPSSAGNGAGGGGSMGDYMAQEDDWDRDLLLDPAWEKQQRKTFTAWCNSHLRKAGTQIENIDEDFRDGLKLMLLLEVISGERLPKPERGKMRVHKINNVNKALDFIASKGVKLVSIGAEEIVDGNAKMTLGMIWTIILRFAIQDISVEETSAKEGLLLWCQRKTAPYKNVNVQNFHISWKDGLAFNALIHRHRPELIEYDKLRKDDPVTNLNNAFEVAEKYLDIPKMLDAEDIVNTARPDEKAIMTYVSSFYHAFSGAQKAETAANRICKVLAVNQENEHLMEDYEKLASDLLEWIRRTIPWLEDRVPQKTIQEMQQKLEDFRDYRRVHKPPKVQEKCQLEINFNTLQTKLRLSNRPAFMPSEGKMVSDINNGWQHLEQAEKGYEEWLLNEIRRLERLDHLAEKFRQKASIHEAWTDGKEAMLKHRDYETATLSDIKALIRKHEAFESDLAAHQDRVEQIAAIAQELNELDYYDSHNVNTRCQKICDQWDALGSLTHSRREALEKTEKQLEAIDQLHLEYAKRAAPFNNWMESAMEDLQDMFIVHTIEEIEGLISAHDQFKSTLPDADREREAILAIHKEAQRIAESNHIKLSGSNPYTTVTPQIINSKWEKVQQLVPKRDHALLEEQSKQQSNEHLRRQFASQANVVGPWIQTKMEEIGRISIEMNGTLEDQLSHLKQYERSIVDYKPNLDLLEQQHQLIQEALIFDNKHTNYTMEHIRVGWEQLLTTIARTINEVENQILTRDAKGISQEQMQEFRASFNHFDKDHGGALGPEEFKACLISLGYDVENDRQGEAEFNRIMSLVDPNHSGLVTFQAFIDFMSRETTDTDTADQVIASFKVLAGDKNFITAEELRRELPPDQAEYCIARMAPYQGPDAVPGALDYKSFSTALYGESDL

binding [1]: no binding | binding [2]: binds | binding [3]: binds
Substance: L-type calcium channel β3 subunit (from UniProt P54287 1-484)

Reference: article PMC4406748
